This is an account of results in PubChem BioAssay AID1508600 (Functional Genomics Laboratory (NCATS/FGL), 2020).

Among all 53,000 sequences or so, about 3,700 (7%) were called active.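 The calls were made as follows: active = gene knockdowns whose robust z-score for IL-1 alpha signal is at least 2 or at most -2, so actives lie on both sides; inactive = the rest.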 Some of the results follow.

The test in a line: Components of the Cytosolic LPS Sensing Pathway: Gene Identification via Genome-wide siRNA Screen.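 Also: robust z of the log signal after scaling to non-targeting control siRNA wells of the plate.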 The conditions noted are these: RAW264.7 macrophages, IL-1a HTRF, actives lie on both sides, screened at 100 nM (by protocol), cells primed 5 h with Pam3CSK4 first. Summed up: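 Knockdown: 100 nM siRNA, 48h, RAW264.7. Stimulation: Pam3CSK4 5 h, then LipidA via TransIT-TKO 24 h. Output: supernatant IL-1a HTRF, negative-control-normalized, log robust z-score; viability by CellTiter-Glo.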
CGUUUGCACUACUCGUAACTT against Nrbf2: the z-score was inactive: 0.0013.
With GGCCUUUACGUCUUCCUAGTT against Zdhhc12, the z-score is inactive: -1.19.
The result for CCCUCUGCUCUAUGUGGUCTT against Olfr1040 reads inactive: -0.195.
For GCACUGACACUGUUUAUCGTT against Sync, the z-score is inactive: -1.63.
For GGAUUCAGAAAUCUGGAAATT against Nmnat3, the z-score is inactive: -0.199.
In the case of GGACUUGCAUACCUUGAUCTT against Dcn, the z-score is inactive: 0.809.
The result for GGAACAUGUCUCCUGAUCUTT against Add3 reads inactive: -1.07.
In the case of GGGAUGAAUACACUUGUUGTT against Cox5a, the z-score is inactive: -0.206.
The result for GGUCUCAUUAUGACAGUGATT against Orc2 reads inactive: 0.209; that for GGCAUCUAUAUCAUCAAAUTT against Pde6a, inactive: 0.54; that for GGCCAAUCAGAUAACUAAATT against Cep57, inactive: 0.542.
On to GCUCCAGACGAUGGUUGAATT against Ppp1r1a, for which the z-score is inactive: 0.106.
The result for GGAAUGGAAAUUCAGAGAGTT against Igfn1 reads inactive: -0.394; that for GGUAACUGGUGUCAUUUAATT against Zfp474, inactive: 0.619; that for GGCUUGGUGACAGGACUAUTT against Spidr, inactive: 0.803.
Then GGUUUUCCAUCUCCUCCAGTT against Klrc1, with inactive: 0.789.
The result for GGAAACUGUCACAGAUUUUTT against Rgl3 reads inactive: -0.133; that for GGAUGCAGUAGAAAUGCUGTT against Ank, inactive: 0.314; that for GCUCUCGAGAGCCAAAGAATT against Bach2os, inactive: 0.961.
Take GGGAUGACUCGAGAUGAUGTT against Hax1: the z-score was inactive: 0.188.
As for GGAUCAUGUGUGAAAUCCUTT against Hars2, the z-score was inactive: 0.981.
The result for GGAAGACCAUUGUUGUUAATT against Has2 reads inactive: -0.0614; that for CCACAGUUUGACCUAAUAGTT against Srgn, inactive: -0.381; that for GGCUAUUCUCAAGGUGUUATT against Olfr568, inactive: -0.593.
The result for GCUAGAUGCUCGGAUCCAGTT against Ei24 reads inactive: -0.873; that for GGCUGUUAGAGGAAGAGAUTT against Ube3b, inactive: 1.64.
As to GGAAAUAACAGGCUUUUUGTT against Egfr, the z-score is inactive: 0.659.
Then GCAGAAUGGUAAAUCCGAUTT against Mc5r, with inactive: 0.137.
As for GGUAGUGUUCAUUGAGGAATT against Oas1d, the z-score is inactive: -0.282.
The result for CGUUUGAUACCAAAGAUUUTT against Onecut3 reads inactive: -1.12; that for GGCACAUACGCUAUGAAGCTT against Prl2c5, inactive: -0.0959.
In the case of GGAGAAAAGGGUGCUGAAGTT against Ybx3, the z-score is active: 2.85.
Regarding CCCGUAUGGAUGUGGUAACTT against Tmem239, the z-score is inactive: -1.39.
Then GCACCGGGAUUUGGUGCAATT against Tut1, with inactive: 0.937; and GCCUGUACAGACUACGCAGTT against Ifi27l2a, with inactive: 0.0257; and GGGAAAAUCAAACAAAACCTT against Tfap4, with inactive: -0.998.
Then GGUUUCAUCAAAGUGCAUUTT against Rassf5, with inactive: -0.648.
For GGUUGUCUCUCAGUAUUCATT against Cct4, the z-score is inactive: -0.722.
The result for GGAUAGCAUCCAUUACUUCTT against Lrrc75b reads inactive: -1.21; that for GGUUGUGUUGGAGGUUAAGTT against Snta1, inactive: 0.721.
Then GGAAUCUAUGAACAUGUUUTT against Pcdh12, with inactive: -0.433; and GGCUCGAUUACUGAGUACATT against Bnip2, with inactive: 0.884; and GGUAGAAUGUGUGAUACCCTT against Rogdi, with inactive: 0.205.
The result for GGUGAAAGCUUUGAUUCUGTT against Zbtb20 reads inactive: -0.564.
Take GGAAAUACGGCUUCAUCUATT against Cyp26a1: the z-score was inactive: 0.935.
As for CCCGAUUAGGUGUUGAUAUTT against Slc25a31, the z-score is inactive: 0.425.
Consider GGCCAUCCAGAAUUACAUGTT against Vash2, for which the z-score was inactive: 1.08.
Then GCAUUGUUUCUCUGGUAAUTT against Cd200, with inactive: -1.11.
For GCAAAGCUUAAAAGUGAAGTT against Tmem203, the z-score is inactive: -1.68.
GGAGACAUGCAAUGAACUUTT against Ica1l: the z-score is inactive: 1.02.
For GGACAUAGUGUGAUAUCUUTT against Man1c1, the z-score is inactive: 0.128.
Then GGACAAGAAAAUGCUAUCATT against Pcsk1, with inactive: 0.154; and CCCGAGUAACUUUUAUAUCTT against Tdrd1, with inactive: 0.769; and GGAAAAAUUUAAAGAGGUCTT against Dnajb4, with inactive: -0.0646.
Consider CCUGACGAAAAUGUUUUAATT against Lrp12, for which the z-score is inactive: 1.04.
In the case of GGUCCUUGUACAACCACCCTT against Acd, the z-score is inactive: 0.516.
With CGUCUGAACACUUCAAGACTT against Vamp8, the z-score was inactive: 0.094.
Then GCUCAAUGGCUACACGGAUTT against Ace, with inactive: 0.0665.
For the sequence GGCAGUUUUGCAUGUGUGATT against Zfp654, the z-score was active: -2.23.
With GGUGGGAAUUACCUUACUUTT against Phf20, the z-score is inactive: 0.905.
Consider GCUUGUAGACUUCCUCCUGTT against Olfr524, for which the z-score was inactive: 0.288.
Turning to GGUUUUCCACUCUUAUGGCTT against Vmn1r49, the z-score is inactive: -1.24.
Then GGAGGAGACUGAAAUUCCATT against Cavin3, with inactive: 0.0827.
The result for CCAACUUUUAGUCUAGAAATT against Mat2a reads inactive: 0.766; that for GCUACUUGGAGUCUAUUUGTT against C1ql3, inactive: 0.48.
GGAAAAGUUUCCACAAACCTT against Iqce: the z-score is inactive: -0.762.
Consider CCUAUGGCCAUUAUGAGCCTT against Rcn3, for which the z-score was inactive: -1.15.
Then GGAUUUCAUUAAGCUGAAGTT against Macrod1, with inactive: -1.47.
